Assay results from article doi:10.1101/2025.09.02.671137 (bioRxiv, 2025).

Columns and labels:
RPA = assay: competition EMSA; details: 20 nM RPA loaded first, displaced by Cdc13
Ku (Ku70-Ku80) + Cdc13 = assay: DNase I footprinting; details: Ku first, then Cdc13, Ku displaced from junction
[1] = tested on: Ku (Ku70-Ku80) (Saccharomyces cerevisiae); assay: DNase I footprinting; details: protects ~15 bp near junction
[2] = molecular target: T1, Cdc13 (Saccharomyces cerevisiae) (UniProt P32797); assay: competition EMSA; details: Tel22 strongly favored when both at 5 nM; residues 1-924
T1 sequence (looked up): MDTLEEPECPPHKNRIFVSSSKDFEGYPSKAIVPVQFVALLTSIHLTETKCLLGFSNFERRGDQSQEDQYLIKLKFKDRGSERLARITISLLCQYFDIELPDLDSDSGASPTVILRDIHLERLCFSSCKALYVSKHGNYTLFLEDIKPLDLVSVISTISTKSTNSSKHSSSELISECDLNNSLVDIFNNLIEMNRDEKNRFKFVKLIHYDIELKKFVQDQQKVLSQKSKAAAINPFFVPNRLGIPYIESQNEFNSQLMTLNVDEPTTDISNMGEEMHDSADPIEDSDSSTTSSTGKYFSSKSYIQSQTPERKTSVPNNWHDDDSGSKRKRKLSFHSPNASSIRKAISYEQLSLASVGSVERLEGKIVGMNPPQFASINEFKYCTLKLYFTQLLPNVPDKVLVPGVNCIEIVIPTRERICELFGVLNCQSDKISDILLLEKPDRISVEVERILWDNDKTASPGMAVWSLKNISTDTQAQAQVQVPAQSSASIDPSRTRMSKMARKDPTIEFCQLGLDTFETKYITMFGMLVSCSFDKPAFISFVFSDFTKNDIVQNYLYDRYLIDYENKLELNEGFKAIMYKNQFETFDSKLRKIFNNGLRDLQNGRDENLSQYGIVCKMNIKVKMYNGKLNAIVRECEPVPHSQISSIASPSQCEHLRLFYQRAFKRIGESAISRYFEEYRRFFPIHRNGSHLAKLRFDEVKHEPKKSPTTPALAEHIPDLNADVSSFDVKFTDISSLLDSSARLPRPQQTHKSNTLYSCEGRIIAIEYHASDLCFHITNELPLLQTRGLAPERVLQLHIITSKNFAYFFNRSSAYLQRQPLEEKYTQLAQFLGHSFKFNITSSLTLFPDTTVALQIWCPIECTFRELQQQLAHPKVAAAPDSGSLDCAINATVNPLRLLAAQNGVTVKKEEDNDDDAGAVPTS

## ATAATGATAAGACGTAGAGTGGGTGTGTGTGTGGGGTGGTGTGTGTGG / ACACCCACTCTACGTCTTATCATTAT [Tel22]
RPA
  binding result: binds

## ATAATGATAAGACGTAGAGTGGGTGTGTGTGTGGGGTGGT / ACACCCACTCTACGTCTTATCATTAT [Tel14]
RPA
  binding result: binds

## TTCAGACAACAGTAGACTACAAGGATGACGACAAGATTAAGCTTTCTTATGTGGGTGTGTGTGTGGGGTGGTGTGTGTGG / ACACCCACATAAGAAAGCTTAATCTTGTCGTCATCCTTGTAGTCTACTGTTGTCTGAA [L-Tel22]
Ku (Ku70-Ku80) + Cdc13
  binding result: binds
[1]
  binding result: binds

## TGTGGGTGTGGTGTGGGTGTGG [ssTel22]
[2]
  binding result: binds more weakly

For some assays here: The comparison behind a weaker result is the experiment's own reference, which may not be listed here. For some assays here: Protein sequences can lack the tags named with them. For some assays here: The exact form of at least one protein or probe is not confirmed. For some assays here: At least one verdict was read from the data and is not stated in words by the source.
